Measurements from PubChem BioAssay AID445 (National Center for Advancing Translational Sciences (NCATS), 2006).
This is one part of the list. Further columns of the screen follow, without active or inactive calls. Compounds called inactive in the main read-out are mostly missing here. Words in brackets tell the shape of the fitted curve; partial curves, single points and poor fits give uncertain potencies.

test: IkB Signaling; details: ABC-DLBCL IkBa-CBG/CBR dual luciferase ratio (green luciferase fused to IkBa over red control in OCI-Ly3 lymphoma cells), 4 h; measured here: control luc red channel unless noted
Method in brief: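 Luminescence ratio of IκBα-fused green versus native red beetle luciferase in OCI-Ly3 cells, 4 h post-doxycycline with compound; red signal alone, scaled from basal (0%) to zero light (-100%), flagged nonspecific or cytotoxic effects.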

| SMILES | AC50 |
| --- | --- |
| CCCN(C(=O)CCn1cnc2onc(-c3ccc(F)cc3)c2c1=O)c1ccccc1C | 39.8 µM [falling, single point] |
| Cc1ccc(Cl)cc1N1CCN(C(=O)Cn2nc(C)n3c(cc4sccc43)c2=O)CC1 | 20 µM [falling, partial curve] |
| Cc1cc(C)cc(C(=O)Nc2c3c(nn2-c2ccccc2C)CS(=O)(=O)C3)c1 | 39.8 µM [falling, single point] |
| CC1(CCc2ccccc2)NC(=O)N(Cc2nnc(-c3ccccc3Br)o2)C1=O (configuration not stated) | 39.8 µM [falling, single point] |
| O=C(Cn1nc2c(cc1=O)CCCC2)NCc1ccccc1Cl | 1 µM [rising, full curve] |
| CCC(=O)N1c2nc(C(C)C)nn2C2(CCCCC2)[C@@H]2CCCC[C@@H]21 | 25.1 µM [falling, single point] |
| COc1ccc(Cl)cc1NC(=O)C(C)n1nnc2sc3c(c2c1=O)CCCC3 (configuration not stated) | 12.6 µM [falling, partial curve] |
| COc1ccccc1C(=O)Nc1cc(-c2cccc(Br)c2)nn1-c1ccccc1 | 20 µM [falling, partial curve, poor fit] |
| COc1ccccc1N1CCN(C(c2cc3ccc(C)cc3[nH]c2=O)c2nnnn2C2CCCC2)CC1 (configuration not stated) | 15.8 µM [falling, partial curve] |
| CCOc1ccc(NC(=O)Cn2nnc(C(=O)OC)c2C(=O)OC)cc1 | 0.2 µM [rising, partial curve, poor fit] |
| Cc1ccc(C(=O)NCC(=O)OCc2cc(=O)n3nc(C4CCCCC4)sc3n2)cc1 | 3.98 µM [rising, single point] |
| COc1ccc(C(=O)NC2(C(F)(F)F)C(=O)NC(C)=C2C#N)cc1 (configuration not stated) | 7.94 µM [rising, single point] |
| CCCCSCc1nc2nc(Cl)c(Cl)nc2[nH]1 | 2 µM [falling, partial curve] |
| COc1cc(Br)cc(CN2CCN(C/C=C/c3ccccc3)CC2)c1O | 12.6 µM [falling, partial curve] |
| CCC(Oc1ccc(F)cc1)C(=O)Nc1cc(-c2ccc(C)cc2)no1 (configuration not stated) | 25.1 µM [falling, partial curve] |
| COc1cccc(CNC(=O)Nc2cc(C(=O)NCc3cccc(F)c3)ccc2N2CCCC2)c1 | 12.6 µM [falling, partial curve] |
| Cc1ccc(N[C@H](c2ccccc2)c2ccc3cccnc3c2O)cc1 | 3.98 µM [rising, partial curve] [measured here: IkB-luc green channel] |

As entered above.
AC50 with COc1ccc(C(=O)NC2(C(F)(F)F)C(=O)NC(C)=C2C#N)cc1 (configuration not stated) is entered as 7.94 µM [rising, single point]
AC50 with CCCCSCc1nc2nc(Cl)c(Cl)nc2[nH]1 is entered as 2 µM [falling, partial curve]
